No constants are given. Whether binding was seen depends on the method and setting. Binding seen in cells or lysates may run through a third protein. Some entries that bind do so weakly or less than the wild type. Sequences can lack the tags named with a protein.
T1: 3HA-FBW2 (3x human influenza hemagglutinin (HA)-epitope at the N terminus of FBW2) (Arabidopsis thaliana) (UniProt Q9ZPE4)
T1 sequence: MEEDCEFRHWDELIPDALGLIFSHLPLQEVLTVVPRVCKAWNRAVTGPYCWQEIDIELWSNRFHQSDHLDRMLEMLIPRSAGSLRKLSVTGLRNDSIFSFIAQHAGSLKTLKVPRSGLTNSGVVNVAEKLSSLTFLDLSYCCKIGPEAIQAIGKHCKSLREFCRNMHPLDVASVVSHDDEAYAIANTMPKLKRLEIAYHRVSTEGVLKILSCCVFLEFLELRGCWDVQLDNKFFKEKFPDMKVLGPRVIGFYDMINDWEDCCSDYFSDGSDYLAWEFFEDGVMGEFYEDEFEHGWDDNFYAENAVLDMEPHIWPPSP

Sequences of proteins named here, by UniProt entry; tags and fusion partners are left off.
UniProt Q94AH6: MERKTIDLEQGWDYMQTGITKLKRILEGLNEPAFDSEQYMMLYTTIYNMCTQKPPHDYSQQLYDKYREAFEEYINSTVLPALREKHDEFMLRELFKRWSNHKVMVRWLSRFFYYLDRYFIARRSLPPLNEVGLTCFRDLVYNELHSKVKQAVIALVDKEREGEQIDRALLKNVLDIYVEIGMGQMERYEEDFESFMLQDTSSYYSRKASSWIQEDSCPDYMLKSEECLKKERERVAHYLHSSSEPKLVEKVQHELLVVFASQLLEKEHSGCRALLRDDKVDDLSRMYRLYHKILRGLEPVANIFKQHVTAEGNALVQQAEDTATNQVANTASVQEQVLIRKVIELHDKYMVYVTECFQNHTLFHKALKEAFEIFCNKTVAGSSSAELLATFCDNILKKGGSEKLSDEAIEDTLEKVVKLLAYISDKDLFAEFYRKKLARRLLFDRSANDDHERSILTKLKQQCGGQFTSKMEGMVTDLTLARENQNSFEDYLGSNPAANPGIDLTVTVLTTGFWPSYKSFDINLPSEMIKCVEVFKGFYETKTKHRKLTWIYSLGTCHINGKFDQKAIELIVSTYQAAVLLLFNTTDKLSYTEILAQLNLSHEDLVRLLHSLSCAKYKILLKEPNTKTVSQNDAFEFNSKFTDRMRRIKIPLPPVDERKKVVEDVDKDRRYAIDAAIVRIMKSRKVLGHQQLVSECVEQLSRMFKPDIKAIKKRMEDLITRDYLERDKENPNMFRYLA
UniProt Q39255: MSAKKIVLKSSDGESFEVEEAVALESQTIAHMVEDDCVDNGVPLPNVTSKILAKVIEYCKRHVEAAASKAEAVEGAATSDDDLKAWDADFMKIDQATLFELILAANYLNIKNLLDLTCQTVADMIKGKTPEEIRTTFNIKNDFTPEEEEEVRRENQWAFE

B1: ARGONAUTE1 (AGO1) (protein, UniProt O04379 1-1048)
chain: MVRKRRTDAPSEGGEGSGSREAGPVSGGGRGSQRGGFQQGGGQHQGGRGYTPQPQQGGRGGRGYGQPPQQQQQYGGPQEYQGRGRGGPPHQGGRGGYGGGRGGGPSSGPPQRQSVPELHQATSPTYQAVSSQPTLSEVSPTQVPEPTVLAQQFEQLSVEQGAPSQAIQPIPSSSKAFKFPMRPGKGQSGKRCIVKANHFFAELPDKDLHHYDVTITPEVTSRGVNRAVMKQLVDNYRDSHLGSRLPAYDGRKSLYTAGPLPFNSKEFRINLLDEEVGAGGQRREREFKVVIKLVARADLHHLGMFLEGKQSDAPQEALQVLDIVLRELPTSRYIPVGRSFYSPDIGKKQSLGDGLESWRGFYQSIRPTQMGLSLNIDMSSTAFIEANPVIQFVCDLLNRDISSRPLSDADRVKIKKALRGVKVEVTHRGNMRRKYRISGLTAVATRELTFPVDERNTQKSVVEYFHETYGFRIQHTQLPCLQVGNSNRPNYLPMEVCKIVEGQRYSKRLNERQITALLKVTCQRPIDREKDILQTVQLNDYAKDNYAQEFGIKISTSLASVEARILPPPWLKYHESGREGTCLPQVGQWNMMNKKMINGGTVNNWICINFSRQVQDNLARTFCQELAQMCYVSGMAFNPEPVLPPVSARPEQVEKVLKTRYHDATSKLSQGKEIDLLIVILPDNNGSLYGDLKRICETELGIVSQCCLTKHVFKMSKQYMANVALKINVKVGGRNTVLVDALSRRIPLVSDRPTIIFGADVTHPHPGEDSSPSIAAVVASQDWPEITKYAGLVCAQAHRQELIQDLFKEWKDPQKGVVTGGMIKELLIAFRRSTGHKPLRIIFYRDGVSEGQFYQVLLYELDAIRKACASLEAGYQPPVTFVVVQKRHHTRLFAQNHNDRHSVDRSGNILPGTVVDSKICHPTEFDFYLCSHAGIQGTSRPAHYHVLWDENNFTADGLQSLTNNLCYTYARCTRSVSIVPPAYYAHLAAFRARFYMEPETSDSGSMASGSMARGGGMAGRSTRGPNVNAAVRPLPALKENVKRVMFYC

Biological target: T1, 3HA-FBW2 (3x human influenza hemagglutinin (HA)-epitope at the N terminus of FBW2) (Arabidopsis thaliana)
Assay: co-IP; 3HA-FBW2 immunoprecipitated with anti-HA magnetic beads from extracts of 10-day-old XVE:3HA-FBW2 seedlings after overnight induction with DMSO or 10 μM β-estradiol, with or without MLN4924; IP buffer 25 mM Tris HCl pH 7.5, 150 mM NaCl, 10% glycerol, 5 mM MgCl2, 0.1% Tween 20, 15 mM EGTA, 10 μM MG132; 3 h at room temperature; western blot (Figure 2B, Figure S9)

Molecule | binding
cullin 1 (CUL1) (from UniProt Q94AH6 1-738) | binds
ASK1 (Skp1-like protein) (from UniProt Q39255 1-160) | binds
B1 | binds

— PMC9035678
